PubChem BioAssay AID602196, INSERM – 2012
This is an unselected part of about 23,000 reagents. Over the whole deposit, 455 (2%) got an active call. 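Active includes both protection and sensitisation; some change values fall well beyond the stated -50 to +50 range.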 Unmarked entries are inactive. The numbers tell different reagents against one gene apart. Not stated in the record: the amount of reagent.

Test: 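Genes whose knock-down alters cisplatin killing of lung cancer cells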
System: human A549 lung cancer cells
Knock-down reagent: siRNA pair against human genes
Duration: 48 h transfection before cisplatin; time from cisplatin to read-out not stated
Challenge: cisplatin at a dose killing half of control-siRNA cells; exact dose and duration not given
Measurement: 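Shift in cisplatin death relative to control siRNA, from -50 (all cells die) to +50 (no cells die); siRNAs harmful on their own scored 0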
Scale: two-siRNA summed score (-2 to +2): higher = both siRNAs protect from cisplatin killing; -2 means both sensitise; mean protection from cisplatin (shift in death) and protection from cisplatin (shift in death), siRNA C and protection from cisplatin (shift in death), siRNA D: higher = protection from cisplatin killing
Call rule: 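siRNAs harmful alone (LDH or WST-1) get 0; others get +1 for less and -1 for more cisplatin killing; genes are active when the two siRNAs give the same sign, summing to ±2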
Calls: active = both siRNAs shift cisplatin killing the same way; inactive = no consistent shift, or siRNA harmful alone

no.	target	reagent no.	two-siRNA summed score (-2 to +2)	mean protection from cisplatin (shift in death) (%)	protection from cisplatin (shift in death), siRNA C (%)	protection from cisplatin (shift in death), siRNA D (%)
1	ZWINT (ZW10 interacting kinetochore protein)	1	-1	-10.7	1	-22.5
2	EVI2A (ecotropic viral integration site 2A)	1	0	3.8	-6	13.6
3	RBP3 (retinol binding protein 3)	1	0	0.9	8.6	-6.7
4	KIF12 (kinesin family member 12)	1	-1	-5.6	17.5	-28.7
5	MED30 (mediator complex subunit 30)	1	0	9.5	28.6	-9.7
6	ZNF493 (zinc finger protein 493)	1	0	10.5	14	6.9
7	ZNF493 (zinc finger protein 493)	2	1	17.9	21	14.8
8	MGC4767	1	0	1.1	15.9	-13.6
9	SAMM50 (SAMM50 sorting and assembly machinery component)	1	0	8.8	-2	19.7
10	LOC442699	1	1	11.5	0.9	22.1
11	LOC284120	1	0	3	0.8	5.2
12	FBXO40 (F-box protein 40)	1	-1	-38.9	-51.5	-26.3
13	PWWP2B (PWWP domain containing 2B)	1	0	6.7	-0.3	13.7
14	DMRT2 (doublesex and mab-3 related transcription factor 2)	1	0	6.4	3.7	9
15	GDPD5 (glycerophosphodiester phosphodiesterase domain containing 5)	1	0	7.9	21.3	-5.5
16	BCL7A (BAF chromatin remodeling complex subunit BCL7A)	1	-1	-3.9	-12.2	4.4
17	CEP112 (centrosomal protein 112)	1	0	10.8	18.7	3
18	PDCD10 (programmed cell death 10)	1	0	-12.3	-15.3	-9.3
19	INTS6 (integrator complex subunit 6)	1	0	-28.4	-54.3	-2.4
20	RAD17 (RAD17 checkpoint clamp loader component)	1	0	-3.3	-0.2	-6.3
21	RARRES1 (retinoic acid receptor responder 1)	1	0	-9.1	-16.5	-1.6
22	DPF1 (double PHD fingers 1)	1	-2 (active)	-14.9	-13.2	-16.6
23	PPP2CA (protein phosphatase 2 catalytic subunit alpha)	1	0	8.5	4.7	12.4

Reagents above called active (1):
target	reagent no.	two-siRNA summed score (-2 to +2)	mean protection from cisplatin (shift in death) (%)	protection from cisplatin (shift in death), siRNA C (%)	protection from cisplatin (shift in death), siRNA D (%)
DPF1 (double PHD fingers 1)	1	-2 (active)	-14.9	-13.2	-16.6
